In patent US10538564B2, “Peptides having osteoblast growth-promoting activity and use thereof” (PHARMA FOODS INTERNATIONAL CO., LTD., priority 2014, dated 2020):

System: mature female rats (eight months old)
Assay: Bone formation-promoting effect in mature rats
Assay type: in vivo, rat
Conditions: No. 1 oral 1, 10 or 100 mg/kg·day, alendronate 300 μg/kg subcutaneous, 20 weeks, vs control group
Protocol: Synthetic peptide No. 1 was administered to mature female rats (eight months old, ten rats in each group) by oral gavage using a gastric tube once a day for 20 weeks. The dose of the synthetic peptide was 1, 10 or 100 mg/kg·day. As a positive control, alendronate sodium hydrate (hereinafter called “alendronate”) (300 μg/kg) was subcutaneously administered once a day for 20 weeks.

NCCCC(O)(P(=O)(O)O)P(=O)(O)O [alendronate, alendronate sodium hydrate, reference compound]
bone density in the femurs: significantly increased
